In PubChem BioAssay AID1347423 (Functional Genomics Laboratory (NCATS/FGL), 2020) one finds z-score data, which are given here for 66 sequences.

In all, about 52,000 sequences went through this assay and about 210 (0.4%) were called active.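 The calls were made as follows: active = gene whose silencing raises cell survival under the drug, median off-target-corrected z-score across its silencing RNAs 2 or more; inactive = the rest.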 Some of the results follow.

The assay in a line: Resistance to Poly (ADP-Ribose) Polymerase inhibitor: Gene Identification via Genome-wide siRNA Screen. The conditions noted are these: mouse BRCA2 R2336H ES cells, olaparib, CellTiter-Glo viability; active compounds read high. An outline of the steps: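 Mouse BRCA2 R2336H ES cells were reverse-transfected with siRNA (20 nM final), treated at 48 h with 500 nM olaparib, and read by CellTiter-Glo after 72 h. Scores: MAD-based z per siRNA, median per gene, seed off-target correction.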
On the technique in general: ATP-based viability assays read luminescence as a measure of living cells.
As to CCUCUAUGAUUUGUAGAACTT against Prkrir, the z-score was inactive: 0.807.
Consider GGGCUUAAAACUUUUCAUATT against Fshprh1, for which the z-score is inactive: -1.28.
Turning to CGGUUUACAUUCCUGACUUTT against AI840980, the z-score was inactive: -0.237.
As to CGUGGUUCCUCUUUGGUGUTT against Kcnj10, the z-score was inactive: 0.284.
Under GGUGUAUGGACAAGGAGUUTT against Pgpep1 stands inactive: -0.931.
As for “CGAGAAAAGAGGUUGGCUGTT against 6330444E15Rik”, the z-score is inactive: 1.5.
On to GGGCUGAAGUUUUAUACCATT against Wasf1, for which the z-score is inactive: 0.00799.
Under CCAAGAACCUUCGUCUGCUTT against Apobec2 stands inactive: -0.469; under “CGACACUGAGCUAAGAGAUTT against 2210415M20Rik”, inactive: -1.87.
Under GCUCUAUAUCUCCUUAGCCTT against Olfr450 stands inactive: -0.349; under “GGCAAUUCGAAUUUUGGUUTT against 2700060E02Rik”, inactive: 0.788; under GGUAGAAAUUUACCUCAUUTT against Dusp4, inactive: -0.722.
With GGAACUCACGCUGAGUUCCTT against Lrrtm1, the z-score was inactive: 1.35.
Under CCUGGCUAUUGGUGAGUGATT against Slc30a3 stands inactive: -0.23; under GGAGGACCUUCAGAAACUCTT against Gdap2, inactive: 1.03.
In the case of “GCUUUUCGAACAAGAGAAGTT against 1110001J12Rik” it was inactive: 0.0445.
In the case of CCACACAAUGGCCAAGUAGTT against Ppp1r16a it was inactive: 0.757.
On to GGUUCCAUCUGUCCUACUUTT against Actr10, for which the z-score was inactive: -0.862.
Under GGAGAAAGCAGAGACAAUGTT against Tnfrsf13c stands inactive: 0.256; under GGACUGAUAGAGGACUUCCTT against Pldn, inactive: 0.0197.
In the case of CCUGUCUUUGAACGAUGUGTT against Olfr1279 it was inactive: -0.419; in that of CCCAUUCAACUUUAGGCCCTT against Hdac7a, inactive: 1.33.
In the case of CCUAUCUCGGUCAUUGGCATT against Mscp it was inactive: -0.29.
As for “GGCUAAGAACCCACAGGAGTT against 2310044H10Rik”, the z-score was inactive: 0.381.
Under GGCAAAAACAUGAUUCUCUTT against Rgmc stands inactive: 0.0148; under CGAAACCUGUUCUUCUGCCTT against Serpinb8, inactive: -0.555; under “CCUUACUUGUUCUCAUUUGTT against 4930422J18Rik”, inactive: -0.461.
GGAAUAAGAUCUGGUAUGATT against Idh2: the z-score was inactive: 0.968.
In the case of CCUAUUACAAUGUACGUGUTT against Ssh3 it was inactive: 0.714; in that of GGAUGUACUUGACACCCAGTT against Cyfip1, inactive: -0.21; in that of GGAAAACCAGAUAAAGAAATT against Cog1, inactive: -0.576.
“GGACAAACUUCAAAAAGGUTT against 4932418E24Rik”: the z-score is inactive: 2.24.
In the case of GGCUUCCCGGAGUAACAAUTT against Dlgap1 it was inactive: -1.16.
Turning to GGAGCAUCACAGAUAUCUATT against Ccr8, the z-score is inactive: 0.74.
Consider GCAGAUUGGUUAAGUAUUCTT against Rttn, for which the z-score was inactive: 1.08.
As to “GGACUUGUACCUGACCUGATT against 2310020H20Rik”, the z-score was inactive: -2.93.
Under CCUUAUGCAUGACUUGAGUTT against Sec8l1 stands inactive: 1.33.
On to GGCAGAGUGCUGACUUCAUTT against Cabc1, for which the z-score is inactive: -0.764.
In the case of GCUUUCUGAAUCCCAAGAGTT against Sh3bgr it was inactive: -0.0618; in that of GCAACACAUUUGAACCACUTT against Usp15, active: 2.9; in that of GGUCUGGUAUGAGGAGAACTT against Prodh2, inactive: -1.4.
On to “GCCCAAGGUAGAUUCCAGCTT against 2410024A21Rik”, for which the z-score is inactive: -0.883.
Under GGCAGUUUCUGUGCUAUACTT against Olfr984 stands inactive: -1.84.
Regarding CCCUCUUUAUCGUCUGUGATT against Gpha2, the z-score was inactive: -0.468.
With GGAUUUUGGCCAAAUUGGUTT against Slc25a30, the z-score is inactive: 0.184.
For GGCUUGUAUGACAAUAAACTT against Vipr1, the z-score is inactive: 1.88.
In the case of GCAGUUAAAGCAAGCCUCUTT against Tas2r107 it was inactive: -0.301; in that of GGAAUACAUCAUCCAGGUGTT against Cntfr, inactive: 0.3; in that of GGAAUUUGAAGCUCUUAUGTT against Add1, inactive: 0.788.
With GGUUUCCAUGUUCUUCCGATT against Pxk, the z-score is inactive: -0.969.
GGACUUGUGCAUUAAGUACTT against Fbxw11: the z-score was inactive: 1.1.
Turning to GGUCUUCAAAGAAAGGAUCTT against Farslb, the z-score is inactive: -1.86.
Under “GGAAAAGAUAGAGUUACUUTT against 4933421E11Rik” stands inactive: 0.536; under GGUUGAAUGAGGUUAUAAGTT against Harp, inactive: 0.156.
On to GGAGAAACUGGACAACCUGTT against Eno2, for which the z-score is inactive: 1.07.
Consider “GGCAUGCUAAAAAUAACUGTT against 1810004F21Rik”, for which the z-score is inactive: 0.865.
With CCAAGCGAAAUCGAGGUGUTT against Mosg, the z-score is inactive: -0.775.
In the case of “GCCAAGCUUGCUGGAUCUUTT against 2310033P09Rik”, the z-score is inactive: -1.04.
For the sequence GGUGUUAAGUCACAAAAUGTT against Mrg1, the z-score was inactive: 0.556.
Under GGAUAUGAAUGAGACCUUCTT against Cables2 stands inactive: -0.0231.
For GGGAGCUAUGAACUCCUUUTT against Krtap5-5, the z-score was inactive: -0.916.
Under “GGAAAUGCUUGUUAAGGCUTT against 2510027J23Rik” stands inactive: 0.732.
Turning to GGAGAGCAGCAUUGAUAACTT against S100a5, the z-score is inactive: 0.0405.
With GGAAAUCUCGUGAUUUUCATT against Tead1, the z-score was inactive: 1.63.
GGUGAAUCGGGCCAAUAAGTT against Slc11a2: the z-score is inactive: 1.25.
In the case of “GGAUGUAGACUUUAUCAAUTT against 4921508O11Rik” it was inactive: 0.818.
